From US8247372B2 (University of Southampton, priority 2006, dated 2012) come the findings set out here.

One data set in a line: general procedure: solution-phase peptide synthesis; DMAP (acylation with 3); MNBA/DMAP (macrolactonisation). The note with it: coupling step.
For “(3S,4R)-3-hydroxy-4-{(S)-2-[(R)-2-((E)-(R)-3-hydroxy-7-tritylsulfanyl-hept-4-enoylamino)-4-methyl-pentanoylamino]-3-tritylsulfanyl-propionylamino}-5-methyl-hexanoic acid allyl ester”, the step yield was found to be 67%. For “3-[(R)-2-[(S)-1-((1R,2S)-3-allyloxycarbonyl-2-hydroxy-1-isopropyl-propylcarbamoyl)-2-tritylsulfanyl-ethylcarbamoyl]-2-((E)-(S)-3-hydroxy-7-tritylsulfanyl-hept-4-enoylamino)-ethyl]-indole-1-carboxylic acid tert-butyl ester”, the step yield came to 58%.

Take “(3S,4R)-3-hydroxy-4{(S)-2-[(R)-2-((E)-(S)-3-hydroxy-7-tritylsulfanyl-hept-4-enoylamino)-propionylamino]-3-tritylsulfanyl-propionylamino}-5-phenyl-pentanoic acid allyl ester”: the step yield is reported as 72%.

“(3S,4R)-3-hydroxy-4{(S)-2-[(R)-2-((E)-(S)-3-hydroxy-7-tritylsulfanyl-hept-4-enoylamino)-3-phenyl-propionylamino]-3-tritylsulfanyl-propionylamino}-5-phenyl-pentanoic acid allyl ester” showed a step yield of 68%. The same measure, in the same setting: the value for “(3S,4R)-3-Hydroxy-4-{2-[(R)-2-((Z)-(S)-3-hydroxy-7-tritylsulfanyl-hept-4-enoylamino)-3-phenyl-propionylamino]-3-tritylsulfanyl-propionylamino}-5-methyl-hexanoic acid allyl ester” was 55%.

The data set is the same for the next values; noted with them: cyclisation step.
With “(2S,6R,9S,12R,13S)-12-benzyl-13-hydroxy-6-methyl-2-((E)-4-tritylsulfanyl-but-1-enyl)-9-tritylsulfanylmethyl-1-oxa-5,8,11-triaza-cyclopentadecane-4,7,10,15-tetraone”, the cyclisation yield worked out at 42%.

For “(2S,6R,9S,12R,13S)-6,12-dibenzyl-13-hydroxy-2-((E)-4-tritylsulfanyl-but-1-enyl)-9-tritylsulfanyl methyl-1-oxa-5,8,11-triaza-cyclopentadecane-4,7,10,15-tetraone”, the cyclisation yield was determined as 38%. Same read-out and setting: for “3-[(2S,6R,9S,12R,13S)-13-hydroxy-12-isopropyl-4,7,10,15-tetraoxo-2-((E)-4-tritylsulfanyl-but-1-enyl)-9-tritylsulfanylmethyl-1-oxa-5,8,11-triaza-cyclopentadec-6-ylmethyl]-indole-1-carboxylic acid tert-butyl ester” the value was 55%; for “(2S,6R,9 S,12R,13R)-13-Hydroxy-6-isobutyl-12-isopropyl-2-((E)-4-tritylsulfanyl-but-1-enyl)-9-tritylsulfanylmethyl-1-oxa-5,8,11-triaza-cyclopentadecane-4,7,10,15-tetraone”, 47%.

The substance “(3R,7S,10S,13R,14S)-7-benzyl-14-hydroxy-13-isopropyl-3-((E)-4-tritylsulfanyl-but-1-enyl)-10-tritylsulfanylmethyl-1,2-dioxa-4,9,12-triaza-cyclohexadecane-5,8,11,16-tetraone” displayed a cyclisation yield of 58%.

The data set is the same for the next values; noted with them: late stage modification step.
Substance “3-[(R)-2-[(S)-1-((1R,2S)-3-carboxy-2-hydroxy-1-isopropyl-propylcarbamoyl)-2-tritylsulfanyl-ethylcarbamoyl]-2-((E)-(S)-3-hydroxy-7-tritylsulfanyl-hept-4-enoylamino)-ethyl]-indole-1-carboxylic acid tert-butyl ester” registered a step yield of 70%. The same measure, in the same setting: for “(3S,4R)-3-hydroxy-4{(S)-2-[(R)-2-((E)-(S)-3-hydroxy-7-tritylsulfanyl-hept-4-enoylamino)-propionylamino]-3-tritylsulfanyl-propionylamino}-5-phenyl-pentanoic acid” the value was 61%. “(3S,4R)-3-hydroxy-4{(S)-2-[(R)-2-((E)-(S)-3-hydroxy-7-tritylsulfanyl-hept-4-enoylamino)-3-phenyl-propionylamino]-3-tritylsulfanyl-propionylamino}-5-phenyl-pentanoic acid”: the step yield is 69%. For the substance “(3S,4R)-3-Hydroxy-4-{(S)-2-[(R)-2-((E)-(R)-3-hydroxy-7-tritylsulfanyl-hept-4-enoylamino)-4-methyl-pentanoylamino]-3-tritylsulfanyl-propionylamino}-5-methyl-hexanoic acid”, the step yield was found to be 63%. Same read-out and setting: for “(3S,4R)-3-hydroxy-4-((S)-2-{(S)-2-[((E)-(R)-1-hydroxy-5-tritylsulfanyl-pent-2-enylcarbamoyl)-methyl]-3-phenyl-propionylamino}-3-tritylsulfanyl-propionylamino)-5-methyl-hexanoic acid” the value was 37%.

Staying with this data set, now noted: oxidative folding step.
“(E)-(1R,6S,7R,10S,21S)-21-benzyl-6-hydroxy-7-isopropyl-2,3-dioxa-12,13-dithia-8,18,23-triaza-bicyclo[8.7.6]tricos-16-ene-4,9,19,22-tetraone” returned an oxidative folding yield of 68%. On the same count and under the same terms, the value for “(E)-(1S,5R,6R,9S,20R)-5-Hydroxy-20-isobutyl-6-isopropyl-2-oxa-11,12-dithia-7,19,22-triaza-bicyclo[7.7.6]docos-15-ene-3,8,18,21-tetraone” was 82%. Still for that read-out and setting: the value for “3-((E)-(1S,5S,6R,9 S,20R)-5-Hydroxy-6-isopropyl-3,8,18,21-tetraoxo-2-oxa-11,12-dithia-7,19,22-triaza-bicyclo[7.7.6]docos-15-en-20-ylmethyl)-indole-1-carboxylic acid tert-butyl ester” was 46%.
